We go through 3 substances from patent US20130130985A1 (priority 2010, published 2013).

Data set [1] can be described thus: general procedure: Boc solid-phase peptide synthesis; MBHA resin (0.6 mmol/g); PAM resin; HBTU (in situ neutralization); HBTU/DIEA. As to conditions: late stage modification step.
Data set [2] in a line: general procedure: Boc solid-phase peptide synthesis; MBHA resin (0.6 mmol/g); HBTU (in situ neutralization); HBTU/DIEA. The settings on record: whole synthesis, scale 0.25 mmol; for isolated yield: overall.

CYIQNSec(pNA)PLG-NH2 showed a step yield in data set [1] of 40% yield.

In the case of CYIQNSec(pNB)PLG-NH2, in data set [2], the isolated yield is listed as 47% overall yield, the crude mass worked out at 65 mg, the crude yield came to 66% yield and the isolated mass came to 46 mg.

Turning to Sec(Acm)YIQNCPLG-NH2, in data set [2], the isolated yield was 22% overall yield, the crude mass is 60 mg, the crude yield was 63% yield and the isolated mass is 22 mg.
